The other results are listed elsewhere or left out.

Chains of the proteins cited; added tags and fusions are not shown. Lines headed by an entry give the natural chain unless they say otherwise; changes in a name come on top.
UniProt Q9H857: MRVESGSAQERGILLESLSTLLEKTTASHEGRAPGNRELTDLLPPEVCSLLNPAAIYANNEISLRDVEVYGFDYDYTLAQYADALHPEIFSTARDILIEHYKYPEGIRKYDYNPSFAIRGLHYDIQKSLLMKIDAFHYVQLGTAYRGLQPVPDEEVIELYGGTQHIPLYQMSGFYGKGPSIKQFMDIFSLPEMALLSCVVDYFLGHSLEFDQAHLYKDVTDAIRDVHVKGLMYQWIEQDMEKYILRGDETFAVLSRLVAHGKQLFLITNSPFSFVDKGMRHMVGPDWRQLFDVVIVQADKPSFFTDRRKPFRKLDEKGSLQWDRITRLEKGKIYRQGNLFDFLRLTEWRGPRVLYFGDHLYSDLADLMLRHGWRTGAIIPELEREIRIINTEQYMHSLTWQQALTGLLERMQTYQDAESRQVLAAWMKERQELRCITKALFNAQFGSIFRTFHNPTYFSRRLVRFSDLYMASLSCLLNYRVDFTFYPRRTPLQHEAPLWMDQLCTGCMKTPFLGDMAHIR
UniProt Q8TAT6: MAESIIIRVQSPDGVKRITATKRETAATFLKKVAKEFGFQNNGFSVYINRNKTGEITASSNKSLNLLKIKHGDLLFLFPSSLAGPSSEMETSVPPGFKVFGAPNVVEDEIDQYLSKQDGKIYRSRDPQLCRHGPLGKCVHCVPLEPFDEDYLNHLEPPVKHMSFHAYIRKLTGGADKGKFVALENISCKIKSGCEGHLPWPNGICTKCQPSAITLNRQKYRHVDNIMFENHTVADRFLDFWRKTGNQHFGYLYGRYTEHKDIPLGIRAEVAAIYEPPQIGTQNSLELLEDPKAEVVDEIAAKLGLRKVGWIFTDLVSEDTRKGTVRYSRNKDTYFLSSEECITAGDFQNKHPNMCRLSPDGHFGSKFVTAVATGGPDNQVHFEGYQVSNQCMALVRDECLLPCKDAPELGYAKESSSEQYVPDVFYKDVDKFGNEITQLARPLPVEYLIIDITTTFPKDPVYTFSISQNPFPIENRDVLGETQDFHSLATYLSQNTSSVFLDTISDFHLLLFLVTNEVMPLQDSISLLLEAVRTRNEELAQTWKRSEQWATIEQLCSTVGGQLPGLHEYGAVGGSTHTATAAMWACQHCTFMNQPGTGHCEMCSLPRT
UniProt Q5TFE4: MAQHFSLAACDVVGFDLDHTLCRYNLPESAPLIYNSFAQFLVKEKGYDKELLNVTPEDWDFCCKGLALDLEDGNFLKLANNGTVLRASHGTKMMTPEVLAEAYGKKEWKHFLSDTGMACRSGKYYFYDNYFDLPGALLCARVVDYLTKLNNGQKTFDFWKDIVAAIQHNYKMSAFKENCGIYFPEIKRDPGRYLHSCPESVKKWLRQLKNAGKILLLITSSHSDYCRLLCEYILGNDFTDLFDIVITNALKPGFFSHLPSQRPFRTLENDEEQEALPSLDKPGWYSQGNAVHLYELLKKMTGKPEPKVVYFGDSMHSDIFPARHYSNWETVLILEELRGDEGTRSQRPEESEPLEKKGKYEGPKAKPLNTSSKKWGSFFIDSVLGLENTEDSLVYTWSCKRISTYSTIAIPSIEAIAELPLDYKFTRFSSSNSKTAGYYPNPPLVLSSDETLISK
UniProt Q08J23, whole entry, looked up: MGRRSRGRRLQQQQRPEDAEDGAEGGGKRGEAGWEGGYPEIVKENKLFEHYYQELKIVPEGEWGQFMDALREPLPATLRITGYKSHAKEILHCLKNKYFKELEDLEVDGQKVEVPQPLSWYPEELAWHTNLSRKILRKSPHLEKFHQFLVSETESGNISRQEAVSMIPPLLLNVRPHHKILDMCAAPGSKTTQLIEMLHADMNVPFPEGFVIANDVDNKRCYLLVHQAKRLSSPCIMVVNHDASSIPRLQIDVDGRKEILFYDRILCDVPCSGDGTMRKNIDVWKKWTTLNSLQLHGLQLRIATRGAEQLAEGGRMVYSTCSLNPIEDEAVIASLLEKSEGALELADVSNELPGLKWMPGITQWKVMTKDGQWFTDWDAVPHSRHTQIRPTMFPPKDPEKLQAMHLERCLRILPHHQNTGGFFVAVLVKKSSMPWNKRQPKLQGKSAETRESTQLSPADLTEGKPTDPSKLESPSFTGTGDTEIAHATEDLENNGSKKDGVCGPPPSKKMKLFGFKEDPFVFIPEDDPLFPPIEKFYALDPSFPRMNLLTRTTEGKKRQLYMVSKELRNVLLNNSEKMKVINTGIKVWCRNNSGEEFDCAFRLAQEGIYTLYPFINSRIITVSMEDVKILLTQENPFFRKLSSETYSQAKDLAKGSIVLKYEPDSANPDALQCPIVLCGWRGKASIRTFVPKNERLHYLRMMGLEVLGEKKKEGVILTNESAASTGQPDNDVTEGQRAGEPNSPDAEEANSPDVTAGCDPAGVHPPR
UniProt O75607: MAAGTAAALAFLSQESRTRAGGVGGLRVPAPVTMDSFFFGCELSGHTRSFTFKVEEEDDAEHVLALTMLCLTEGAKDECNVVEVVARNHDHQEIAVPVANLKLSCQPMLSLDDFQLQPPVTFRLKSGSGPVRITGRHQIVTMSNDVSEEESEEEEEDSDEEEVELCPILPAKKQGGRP
UniProt Q04721: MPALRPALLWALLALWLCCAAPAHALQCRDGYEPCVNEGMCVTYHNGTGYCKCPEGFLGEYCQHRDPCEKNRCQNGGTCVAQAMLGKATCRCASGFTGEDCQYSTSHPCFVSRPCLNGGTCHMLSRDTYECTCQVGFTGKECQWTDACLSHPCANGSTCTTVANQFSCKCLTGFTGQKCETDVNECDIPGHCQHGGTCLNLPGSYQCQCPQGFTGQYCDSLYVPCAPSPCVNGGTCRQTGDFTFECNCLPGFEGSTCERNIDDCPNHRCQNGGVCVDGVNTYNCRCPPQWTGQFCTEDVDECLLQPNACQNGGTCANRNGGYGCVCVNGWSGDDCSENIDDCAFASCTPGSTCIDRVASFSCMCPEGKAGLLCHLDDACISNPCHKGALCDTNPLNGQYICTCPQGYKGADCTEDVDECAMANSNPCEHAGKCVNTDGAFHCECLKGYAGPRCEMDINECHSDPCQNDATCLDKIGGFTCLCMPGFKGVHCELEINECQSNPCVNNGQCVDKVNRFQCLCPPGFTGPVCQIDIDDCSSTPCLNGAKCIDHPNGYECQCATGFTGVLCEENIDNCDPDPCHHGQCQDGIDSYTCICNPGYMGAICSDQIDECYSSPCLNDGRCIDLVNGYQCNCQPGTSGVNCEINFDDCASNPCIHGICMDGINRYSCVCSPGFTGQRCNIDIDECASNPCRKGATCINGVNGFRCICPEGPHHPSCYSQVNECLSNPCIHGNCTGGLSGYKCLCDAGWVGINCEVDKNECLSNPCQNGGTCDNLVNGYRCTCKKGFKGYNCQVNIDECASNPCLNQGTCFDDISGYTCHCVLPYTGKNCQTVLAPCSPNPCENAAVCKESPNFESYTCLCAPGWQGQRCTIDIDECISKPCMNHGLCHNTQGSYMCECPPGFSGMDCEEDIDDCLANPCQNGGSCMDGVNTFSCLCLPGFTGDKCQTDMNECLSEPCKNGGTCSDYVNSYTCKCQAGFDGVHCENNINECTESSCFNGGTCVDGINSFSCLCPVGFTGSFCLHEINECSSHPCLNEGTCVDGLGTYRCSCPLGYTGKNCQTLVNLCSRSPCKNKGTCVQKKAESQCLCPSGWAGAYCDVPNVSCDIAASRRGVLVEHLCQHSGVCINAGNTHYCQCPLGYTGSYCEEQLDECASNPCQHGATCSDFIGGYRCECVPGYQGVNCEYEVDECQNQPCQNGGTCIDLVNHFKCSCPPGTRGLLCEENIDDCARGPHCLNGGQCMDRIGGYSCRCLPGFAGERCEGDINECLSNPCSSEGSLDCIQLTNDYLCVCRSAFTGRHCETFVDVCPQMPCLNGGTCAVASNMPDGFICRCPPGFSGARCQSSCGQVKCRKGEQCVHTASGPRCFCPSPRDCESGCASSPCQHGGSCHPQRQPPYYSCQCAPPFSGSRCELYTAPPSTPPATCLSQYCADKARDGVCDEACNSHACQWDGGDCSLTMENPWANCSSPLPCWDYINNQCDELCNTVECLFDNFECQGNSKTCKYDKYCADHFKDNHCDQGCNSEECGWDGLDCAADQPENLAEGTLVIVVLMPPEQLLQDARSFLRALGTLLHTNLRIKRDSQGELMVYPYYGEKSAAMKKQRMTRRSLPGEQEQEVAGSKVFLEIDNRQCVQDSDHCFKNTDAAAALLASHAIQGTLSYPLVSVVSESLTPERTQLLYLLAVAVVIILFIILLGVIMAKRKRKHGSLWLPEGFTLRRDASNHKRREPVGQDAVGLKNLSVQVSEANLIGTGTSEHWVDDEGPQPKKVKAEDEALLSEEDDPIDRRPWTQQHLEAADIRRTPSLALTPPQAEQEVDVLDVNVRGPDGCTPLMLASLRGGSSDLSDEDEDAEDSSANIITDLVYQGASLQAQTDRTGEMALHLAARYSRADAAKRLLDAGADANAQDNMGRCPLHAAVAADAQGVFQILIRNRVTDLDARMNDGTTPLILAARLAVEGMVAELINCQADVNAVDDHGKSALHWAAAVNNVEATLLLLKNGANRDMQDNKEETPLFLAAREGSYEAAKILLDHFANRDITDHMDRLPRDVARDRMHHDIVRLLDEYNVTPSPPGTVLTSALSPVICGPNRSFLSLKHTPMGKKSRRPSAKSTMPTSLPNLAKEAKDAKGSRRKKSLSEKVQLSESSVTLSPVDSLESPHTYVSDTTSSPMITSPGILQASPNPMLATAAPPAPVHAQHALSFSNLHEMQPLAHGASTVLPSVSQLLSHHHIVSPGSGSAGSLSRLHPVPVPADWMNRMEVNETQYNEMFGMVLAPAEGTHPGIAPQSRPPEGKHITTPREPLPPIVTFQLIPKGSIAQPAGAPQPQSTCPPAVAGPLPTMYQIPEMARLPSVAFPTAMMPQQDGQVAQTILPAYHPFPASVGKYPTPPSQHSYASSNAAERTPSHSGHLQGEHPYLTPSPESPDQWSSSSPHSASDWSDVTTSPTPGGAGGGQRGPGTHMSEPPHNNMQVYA
UniProt P46087: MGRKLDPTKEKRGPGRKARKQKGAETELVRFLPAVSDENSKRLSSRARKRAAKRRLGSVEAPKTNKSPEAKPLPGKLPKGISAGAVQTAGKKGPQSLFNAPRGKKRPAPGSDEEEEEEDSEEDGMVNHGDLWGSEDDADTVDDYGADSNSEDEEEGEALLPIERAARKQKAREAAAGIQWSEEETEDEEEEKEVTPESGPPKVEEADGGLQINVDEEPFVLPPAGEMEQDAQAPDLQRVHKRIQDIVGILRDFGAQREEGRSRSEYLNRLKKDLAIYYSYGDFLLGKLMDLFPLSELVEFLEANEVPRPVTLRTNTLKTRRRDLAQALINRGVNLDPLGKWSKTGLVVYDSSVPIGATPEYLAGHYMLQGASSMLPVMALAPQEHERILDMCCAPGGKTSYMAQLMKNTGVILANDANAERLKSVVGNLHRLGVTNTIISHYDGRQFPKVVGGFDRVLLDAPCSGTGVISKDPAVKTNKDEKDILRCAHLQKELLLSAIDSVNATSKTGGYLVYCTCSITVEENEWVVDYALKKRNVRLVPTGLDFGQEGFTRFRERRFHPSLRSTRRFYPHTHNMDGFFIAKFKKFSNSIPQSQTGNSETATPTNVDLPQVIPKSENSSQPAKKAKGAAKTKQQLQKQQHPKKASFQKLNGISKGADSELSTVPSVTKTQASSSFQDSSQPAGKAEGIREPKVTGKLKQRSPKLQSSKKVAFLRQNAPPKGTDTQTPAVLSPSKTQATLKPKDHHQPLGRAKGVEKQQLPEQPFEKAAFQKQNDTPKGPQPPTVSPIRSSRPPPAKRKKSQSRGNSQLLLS
UniProt Q5SY16: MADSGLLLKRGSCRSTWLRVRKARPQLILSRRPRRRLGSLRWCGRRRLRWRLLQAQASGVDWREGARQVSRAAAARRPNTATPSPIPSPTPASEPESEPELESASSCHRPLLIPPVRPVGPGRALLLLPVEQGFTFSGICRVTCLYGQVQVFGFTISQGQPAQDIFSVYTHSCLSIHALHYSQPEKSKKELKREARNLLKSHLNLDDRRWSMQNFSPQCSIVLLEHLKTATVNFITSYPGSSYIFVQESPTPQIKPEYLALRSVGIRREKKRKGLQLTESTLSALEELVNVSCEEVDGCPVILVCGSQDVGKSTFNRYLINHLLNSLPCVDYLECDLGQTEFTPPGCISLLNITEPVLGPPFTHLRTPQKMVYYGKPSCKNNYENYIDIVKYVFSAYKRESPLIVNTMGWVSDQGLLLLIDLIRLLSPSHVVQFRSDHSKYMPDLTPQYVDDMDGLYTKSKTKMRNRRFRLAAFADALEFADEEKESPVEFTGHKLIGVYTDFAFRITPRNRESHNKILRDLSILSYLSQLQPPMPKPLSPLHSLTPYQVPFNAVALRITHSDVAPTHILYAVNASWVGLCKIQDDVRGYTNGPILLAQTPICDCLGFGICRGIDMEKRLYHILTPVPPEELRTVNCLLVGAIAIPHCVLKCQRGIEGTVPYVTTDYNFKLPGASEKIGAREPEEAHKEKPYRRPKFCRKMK

Here are results for 36 targets from the supplement of paper PMC12067093, “Discovery and optimisation of a covalent ligand for TRIM25 and its application to targeted protein ubiquitination” (Chemical Science, 2025).

Compound in the assay: Cc1cc(ccc1-c1ccccc1)C(=O)N1CCCN(CC1)C(=O)CCl [compound 10]
The experiment in a line: probe-labelled cysteine peptide fold change vs DMSO (competition) (log2 fold change); higher = less target engagement (more negative = stronger competition). To be noted: THP-1, incubation time: 4 h.
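Note: competitive profiling in live THP-1 cells: cysteine peptides tagged with an iodoacetamide desthiobiotin (IA-DTB) probe, intensity after compound treatment relative to DMSO-treated cells.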

For the target “NOL4L_Q96MY1_148_TEVSGCPEDLTVGR (UniProt Q96MY1)”, the “probe-labelled cysteine peptide fold change” value is -0.305 (10 µM) and -0.164 (50 µM).

On to “NT5DC2_Q9H857_475_FSDLYMASLSCLLNYR (UniProt Q9H857)”, for which the “probe-labelled cysteine peptide fold change” value reads like this: (10 µM) -0.0617; (50 µM) 0.259.

As for “NSD2_O96028_594_NLSDACK (UniProt O96028)”, the “probe-labelled cysteine peptide fold change” value was -0.0335 (10 µM) and 0.0938 (50 µM).

With “NPLOC4_Q8TAT6_138_CVHCVPLEPFDEDYLNHLEPPVK (UniProt Q8TAT6)”, the “probe-labelled cysteine peptide fold change” value (10 µM) stood at 0.114 and the “probe-labelled cysteine peptide fold change” value (50 µM) turned out to be 0.178.

In the case of “NMD3_Q96D46_321_QLEEFIVMECSIVQDIK (UniProt Q96D46)”, the “probe-labelled cysteine peptide fold change” value by setting is: (10 µM) 0.356; (50 µM) 0.624.

On to “NTMT1_Q9BV86_64_TGTSCALDCGAGIGR (UniProt Q9BV86)”, for which the “probe-labelled cysteine peptide fold change” value by setting is: (10 µM) 0.0971; (50 µM) 0.195.

As for “NT5DC1_Q5TFE4_22_AQHFSLAACDVVGFDLDHTLCR (UniProt Q5TFE4)”, the “probe-labelled cysteine peptide fold change” value (10 µM) was 0.194 and the “probe-labelled cysteine peptide fold change” value (50 µM) was found to be 0.593.

For “NSL1_Q96IY1_53_RAVTEMLQLCGR (UniProt Q96IY1)”, the “probe-labelled cysteine peptide fold change” value is, setting by setting: (10 µM) -0.161; (50 µM) 0.195.

For “NSUN2_Q08J23_599_NNSGEEFDCAFR (UniProt Q08J23)”, the “probe-labelled cysteine peptide fold change” value runs as follows: (10 µM) -0.0151; (50 µM) -0.394.

As for “NPRL2_Q8WTW4_9_IECIFFSEFHPTLGPK (UniProt Q8WTW4)”, the “probe-labelled cysteine peptide fold change” value is, setting by setting: (10 µM) -0.02; (50 µM) -0.0352.

Take “NPM3_O75607_105_LSCQPMLSLDDFQLQPPVTFR (UniProt O75607)”: the “probe-labelled cysteine peptide fold change” value runs as follows: (10 µM) 0.583; (50 µM) 0.593.

“NSUN5_Q96P11_278+279_AGVSCCELAEEDFLAVSPSDPR (UniProt Q96P11)”: the “probe-labelled cysteine peptide fold change” value is, setting by setting: (10 µM) 0.223; (50 µM) -0.0782.

As to “NPEPL1_Q8NDH3_284_DCGGAAAVLGAFR (UniProt Q8NDH3)”, the “probe-labelled cysteine peptide fold change” value by setting is: (10 µM) -0.000299; (50 µM) -0.107.

“NME1_P15531_145_EIGLWFHPEELVDYTSCAQNWIYE (UniProt P15531)”: the “probe-labelled cysteine peptide fold change” value reads like this: (10 µM) -0.261; (50 µM) -0.0646.

On to “NPLOC4_Q8TAT6_355_HPNMCR (UniProt Q8TAT6)”, for which the “probe-labelled cysteine peptide fold change” value (10 µM) is 0.0218 and the “probe-labelled cysteine peptide fold change” value (50 µM) is -0.0444.

Consider “NOTCH2_Q04721_1966_LAVEGMVAELINCQADVNAVDDHGK (UniProt Q04721)”, for which the “probe-labelled cysteine peptide fold change” value (10 µM) turned out to be 0.391 and the “probe-labelled cysteine peptide fold change” value (50 µM) was found to be 0.564.

For the target “NRBF2_Q96F24_155_SEPAEPCIGSK (UniProt Q96F24)”, the “probe-labelled cysteine peptide fold change” value was -0.296 (10 µM) and -0.527 (50 µM).

Turning to “NLRP2_Q9NX02_692_SQDDQHMLPFWTDLCSIFGSNK (UniProt Q9NX02)”, the “probe-labelled cysteine peptide fold change” value runs as follows: (10 µM) -0.0707; (50 µM) -0.373.

On to NOP9_Q86U38_138_TVACHR (UniProt Q86U38), for which the “probe-labelled cysteine peptide fold change” value reads like this: (10 µM) 0.265; (50 µM) 0.0436.

Turning to “NLRX1_Q86UT6_259_LAGTGLCSDPEEPQEPAAIIVNLLR (UniProt Q86UT6)”, the “probe-labelled cysteine peptide fold change” value was -0.388 (10 µM) and 0.439 (50 µM).

Consider “NOP2_P46087_463_VLLDAPCSGTGVISK (UniProt P46087)”, for which the “probe-labelled cysteine peptide fold change” value runs as follows: (10 µM) -0.0187; (50 µM) 0.0458.

As to “NOTCH2_Q04721_427_GADCTEDVDECAMANSNPCEHAGK (UniProt Q04721)”, the “probe-labelled cysteine peptide fold change” value is, setting by setting: (10 µM) 0.149; (50 µM) 0.115.

Consider “NLN_Q9BYT8_199_MSELCIDFNK (UniProt Q9BYT8)”, for which the “probe-labelled cysteine peptide fold change” value (10 µM) came out at 0.0165 and the “probe-labelled cysteine peptide fold change” value (50 µM) is -0.033.

With “NOL9_Q5SY16_140_ALLLLPVEQGFTFSGICR (UniProt Q5SY16)”, the “probe-labelled cysteine peptide fold change” value is, setting by setting: (10 µM) -0.0051; (50 µM) -0.0416.

Consider “NRBP1_Q9UHY1_340_LLAAHCIVGHQHMIPENALEEITK (UniProt Q9UHY1)”, for which the “probe-labelled cysteine peptide fold change” value turned out to be 0.105 (10 µM) and 0.0216 (50 µM).

Turning to “NRDE2_Q9H7Z3_1119_ALQNCPWAK (UniProt Q9H7Z3)”, the “probe-labelled cysteine peptide fold change” value by setting is: (10 µM) -0.0189; (50 µM) -0.008.

As for “NOL8_Q76FK4_1020_EEGTPWNEDCGK (UniProt Q76FK4)”, the “probe-labelled cysteine peptide fold change” value was -0.0193 (10 µM) and -0.0417 (50 µM).

On to “NOP2_P46087_393_ILDMCCAPGGK (UniProt P46087)”, for which the “probe-labelled cysteine peptide fold change” value runs as follows: (10 µM) -0.19; (50 µM) -0.287.

Take “NOL10_Q9BSC4_55_IELIQDFEMPTVCTTIK (UniProt Q9BSC4)”: the “probe-labelled cysteine peptide fold change” value runs as follows: (10 µM) 0.00277; (50 µM) 0.11.

For “NSUN2_Q08J23_235_RLSSPCIMVVNHDASSIPR (UniProt Q08J23)”, the “probe-labelled cysteine peptide fold change” value is, setting by setting: (10 µM) 0.0279; (50 µM) -0.196.

As for “NTHL1_P78549_118_DAPVDHLGTEHCYDSSAPPK (UniProt P78549)”, the “probe-labelled cysteine peptide fold change” value is -0.282 (10 µM) and -0.825 (50 µM).

Take “NT5DC3_Q86UY8_506_FADIYMASLSCLLNYDVSHTFYPR (UniProt Q86UY8)”: the “probe-labelled cysteine peptide fold change” value (10 µM) is -0.131 and the “probe-labelled cysteine peptide fold change” value (50 µM) turned out to be 0.603.

For “NT5DC1_Q5TFE4_139_YYFYDNYFDLPGALLCAR (UniProt Q5TFE4)”, the “probe-labelled cysteine peptide fold change” value runs as follows: (10 µM) 1.21; (50 µM) 1.46.

As for “NPTN_Q9Y639_259_NEGQDATMYCK (UniProt Q9Y639)”, the “probe-labelled cysteine peptide fold change” value is, setting by setting: (10 µM) -0.0545; (50 µM) -0.0448.

In the case of “NOL9_Q5SY16_605_GYTNGPILLAQTPICDCLGFGICR (UniProt Q5SY16)”, the “probe-labelled cysteine peptide fold change” value was 0.429 (10 µM) and 0.345 (50 µM).

For “NRDC_O43847_620_ANLVLLSGANEGKCDLK (UniProt O43847)”, the “probe-labelled cysteine peptide fold change” value was -0.248 (10 µM) and -0.574 (50 µM).
